Drug screen on melanoma cell lines: apoptosis marker

From a melanoma drug combination screen (doi:10.1371/journal.pone.0140310); values rounded.

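Human melanoma cell lines in 1,536-well plates were treated with one drug for 72 h, then fixed, stained and imaged. Each value is the cleaved-PARP-positive fraction of nuclei relative to DMSO-treated wells, in %, so that 100 equals the control and higher values mean more apoptosis. Every drug was used at one fixed concentration, the higher of two screened. These are primary screening values without error estimates. The marker varies much from line to line, for technical or biological reasons.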
An unselected part of the screen is shown.

Compound	C32
CC1(C)NC(=O)N(c2ccc([N+](=O)[O-])c(C(F)(F)F)c2)C1=O at 5 µM	43.7
N#CC[C@H](C1CCCC1)n1cc(-c2ncnc3[nH]ccc23)cn1 at 5 µM	196
Nc1cccc2c1CN(C1CCC(=O)NC1=O)C2=O (stereo not shown) at 5 µM	244
CS(=O)(=O)CCNCc1ccc(-c2ccc3ncnc(Nc4ccc(OCc5cccc(F)c5)c(Cl)c4)c3c2)o1 at 4 µM	284
CN(NC(=O)CC(=O)NN(C)C(=S)c1ccccc1)C(=S)c1ccccc1 at 0.03 µM	3460
CC(=O)c1c(C)c2cnc(Nc3ccc(N4CCNCC4)cn3)nc2n(C2CCCC2)c1=O at 0.2 µM	130
OCCn1cc(-c2cnc3nnn(Cc4ccc5ncccc5c4)c3n2)cn1 at 5 µM	53.2
N.N.[Cl][Pt][Cl] at 8 µM	164
CCN(CC)CCNC(=O)c1c(C)[nH]c(/C=C2\C(=O)Nc3ccc(F)cc32)c1C at 2 µM	44.3
Cn1nnc2c(C(N)=O)ncn2c1=O at 10 µM	183
Nc1nc(F)nc2c1ncn2[C@@H]1O[C@H](CO)[C@@H](O)[C@@H]1O at 1 µM	65.7
Cc1cc([N+](=O)[O-])ccc1NS(=O)(=O)c1cc(Cl)ccc1Cl at 5 µM	103
CC(C)CCN1c2nc(Nc3cc(F)c(O)c(F)c3)ncc2N(C)C(=O)C1C (stereo not shown) at 1 µM	86.8
Cc1ccc(NC(=O)c2cccc(N(C)C)c2)cc1NC(=O)c1ccc(O)cc1 at 10 µM	125
CCc1ccc(CCOc2ccc(CC3SC(=O)NC3=O)cc2)nc1 (stereo not shown) at 10 µM	70.7
CN(C)S(=O)(=O)c1ccc2c(c1)/C(=C/c1cc3c([nH]1)CCCC3)C(=O)N2 at 2 µM	74.7
Cc1cc(Nc2cc(N3CCN(C)CC3)nc(Sc3ccc(NC(=O)C4CC4)cc3)n2)n[nH]1 at 0.03 µM	206
CCCS(=O)(=O)Nc1ccc(F)c(C(=O)c2c[nH]c3ncc(Cl)cc23)c1F at 0.4 µM	34.2
Cn1c(=O)n(-c2ccc(C(C)(C)C#N)cc2)c2c3cc(-c4cnc5ccccc5c4)ccc3ncc21 at 0.02 µM	137
NC1(c2ccc(-c3nc4ccn5c(=O)[nH]nc5c4cc3-c3ccccc3)cc2)CCC1 at 2 µM	446
CNC(=O)c1cc(Oc2ccc(NC(=O)Nc3ccc(Cl)c(C(F)(F)F)c3)cc2)ccn1 at 2 µM	102
C[C@]1(c2nc3c(C(N)=O)cccc3[nH]2)CCCN1 at 7 µM	81.5
CC(C)(C)c1cnc(CSc2cnc(NC(=O)C3CCNCC3)s2)o1 at 0.05 µM	86.1
Cn1c(Nc2ccc(C(F)(F)F)cc2)nc2cc(Oc3ccnc(-c4ncc(C(F)(F)F)[nH]4)c3)ccc21 at 0.4 µM	369
CCCCCCCCCCCCCCCCCCOP(=O)([O-])OC1CC[N+](C)(C)CC1 at 2 µM	65.3
CC(C)C[C@H](NC(=O)[C@H](Cc1ccccc1)NC(=O)c1cnccn1)B(O)O at 0.005 µM	892
C/C(O)=C(\C#N)C(=O)Nc1cc(Br)ccc1Br at 10 µM	96.3
O=C(CCCCCCC(=O)Nc1ccccc1)NO at 0.4 µM	40.8
C[C@]1(O)C[C@@H](c2nc(-c3ccc4ccc(-c5ccccc5)nc4c3)c3c(N)nccn32)C1 at 2 µM	190
CS(=O)(=O)c1ccc(C(=O)Nc2ccc(Cl)c(-c3ccccn3)c2)c(Cl)c1 at 5 µM	42.2
Cc1cc(N2CCOCC2)cc2[nH]c(-c3c(NC[C@@H](O)c4cccc(Cl)c4)cc[nH]c3=O)nc12 at 1 µM	180
C[As](C)SC[C@H](NC(=O)CC[C@H](N)C(=O)O)C(=O)NCC(=O)O at 2 µM	114
NC(=O)Nc1cc(-c2cccc(F)c2)sc1C(=O)N[C@H]1CCCNC1 at 0.1 µM	420
CN(c1ncccc1CNc1nc(Nc2ccc3c(c2)CC(=O)N3)ncc1C(F)(F)F)S(C)(=O)=O at 0.4 µM	358
COc1cc2c(Oc3ccc4[nH]c(C)cc4c3F)ncnc2cc1OCCCN1CCCC1 at 2 µM	201
Nc1ncn([C@H]2C[C@H](O)[C@@H](CO)O2)c(=O)n1 at 0.5 µM	131
NCC(=O)Nc1ccc(-n2nc(C(F)(F)F)cc2-c2ccc3c(ccc4ccccc43)c2)cc1 at 5 µM	114
COc1ccc(-c2ccc3c(N4CCOCC4)nc(N4C[C@@H](C)O[C@@H](C)C4)nc3n2)cc1CO at 0.1 µM	77.7
Nc1ccn([C@@H]2O[C@H](CO)[C@@H](O)C2(F)F)c(=O)n1 at 0.002 µM	24.5

For reference, 5 entries once more:

- CCc1ccc(CCOc2ccc(CC3SC(=O)NC3=O)cc2)nc1 (stereo not shown) at 10 µM | C32: 70.7
- CCCCCCCCCCCCCCCCCCOP(=O)([O-])OC1CC[N+](C)(C)CC1 at 2 µM | C32: 65.3
- Cc1cc([N+](=O)[O-])ccc1NS(=O)(=O)c1cc(Cl)ccc1Cl at 5 µM | C32: 103
- Cc1ccc(NC(=O)c2cccc(N(C)C)c2)cc1NC(=O)c1ccc(O)cc1 at 10 µM | C32: 125
- O=C(CCCCCCC(=O)Nc1ccccc1)NO at 0.4 µM | C32: 40.8